Measurements taken from PMC12040169 (PLOS Biology, 2025).
Some of the results follow.

System: T1, CTL2-GFP (C. trachomatis L2/434/Bu, GFP-expressing)
T1 construct: L2/434/Bu, GFP-expressing
Parameters: species or system HeLa; Intracellular C. trachomatis growth in HeLa cells, bulk GFP fluorescence relative to DMSO
Conditions: bulk GFP, single well; 28.5 h, 10 µM; inhibitor

Compound	% of control remaining
COc1cc([N+](=O)[O-])ccc1NC(=O)CN(C)S(=O)(=O)c1ccc2ccccc2c1 [CBK267387]	106.424%
Cc1cccc(Cc2cccc(C3CCCN(S(=O)(=O)c4cn(C)nc4C)C3)n2)c1 (stereo not drawn) [CBK286131]	93.1703%
O=C(O)c1sccc1S(=O)(=O)Nc1ccc(Cc2nc3ccccc3s2)cc1 [CBK295286]	145.865%
c1cncc(-c2ncc(-c3ccco3)c(-c3ccco3)n2)c1 [CBK284503]	96.7886%
O=C(Nc1cccc2[nH]ccc12)c1cccc(F)c1Cl [CBK159638]	121.11%
CC(=O)Nc1ccc(CN(C)c2c(C)nc3c(OCC4CCCCC4)cccn23)cc1 [CBK147379]	101.79%
CNc1cc(N2CCN(S(=O)(=O)N(C)C)CC2)ccc1[N+](=O)[O-] [CBK269311]	143.288%
Cc1ccc(-c2csc(NC(=O)CS(=O)(=O)c3ccccc3)n2)cc1 [CBK287707]	84.2124%
Cc1ccc(NC(=O)C2CCCN2S(=O)(=O)c2ccc(F)cc2)cc1F (stereo not drawn) [CBK110164]	61.1736%
O=C(O)CSC1c2ccccc2Oc2ccc(F)cc21 (stereo not drawn) [CBK266462]	125.466%
O=C(O)CN1CCC(Oc2nccnc2OCc2ccc(Cl)c(Cl)c2)CC1 [CBK144443]	114.851%
Cc1cc(Br)ccc1NC(=O)C(=O)NC1CC1 [CBK269284]	143.589%
Cc1cc(C)c(-n2cccn2)c(CN2CCC(CO)C2)c1 (stereo not drawn) [CBK282915]	121.621%
COc1c(C)cc(Br)cc1C(=O)NC(=S)Nc1ccccc1N1CCN(C)CC1 [CBK267855C]	103.784%
CN(CCOc1ccccc1)c1nccnc1N1CCNCC1 [CBK000035F]	133.102%
Cc1cc(NS(=O)(=O)c2ccc(OCCNS(C)(=O)=O)cc2)no1 [CBK268530]	167.736%
C[C@@H]1CN(c2ccc(C(F)(F)F)c(OCc3ccccc3)n2)CCN1 [CBK003987A]	22.0675%
COc1ccc([C@@]23CC[C@@H](NC(=O)Nc4ccon4)C[C@@H]2N(C)CC3)cc1OC [CBK051069T]	71.3899%
COCCN(Cc1cc2ccc(C)cc2nc1O)S(=O)(=O)c1ccccc1 [CBK269216]	138.161%
Cc1n[nH]c(C)c1CNC(=O)C1CCN(Cc2ccc(F)cc2)CC1 [CBK282502]	117.687%
c1csc(-c2nnc(C3CCN(Cc4ccsc4)CC3)o2)c1 [CBK285309]	135.257%

3 structures from above, sorted by length of the SMILES, falling.
Compound	% of control remaining
CC(=O)Nc1ccc(CN(C)c2c(C)nc3c(OCC4CCCCC4)cccn23)cc1 [CBK147379]	101.79%
Cc1n[nH]c(C)c1CNC(=O)C1CCN(Cc2ccc(F)cc2)CC1 [CBK282502]	117.687%
c1csc(-c2nnc(C3CCN(Cc4ccsc4)CC3)o2)c1 [CBK285309]	135.257%
